Source: US11766440B1, “Methods for the prevention and treatment of hearing loss” (Ting Therapeutics LLC, priority 2020, dated 2023)
At least one structure is not confirmed: it was looked up by name or label, or the drawing left a doubt.

Test system: zebrafish lateral line neuromast hair cells
Assay: Zebrafish lateral line neuromast hair cell counts after aminoglycoside
Type: in vivo, Danio rerio
Conditions: 5dpf larvae, 1 hour pre-incubation 0.002-13.3 μM, then KM 200 or 300 uM for 1 hour or 150 uM for 6 hours
Experimental: . Each treatment was pretreated with MMB at the prescribed doses prior to co-treatment with the aminoglycoside. Control animal were treated with DMSO (−) or KM or GM alone (+) Animals were then fixed and immunostained for GFP and otoferlin. Quantification was done by assessing three neuromasts in the same anatomic location of each animal (n=5). The data is plotted as mean+SD. Statistical testing was done with One-way ANOVA and Dunnett post-hoc test (*P<0.05, **P<0.01,***P<0.001).
FIG. 4A-B show Fedratinib (FED) protected zebrafish mechanosensory hair cells against kanamycin (KM) in vivo. 5dpf Tg(Brn3c:mGFP) larvae were used for the experiments. Each treatment was pretreated FED at the prescribed doses prior to co-treatment with the aminoglycoside. […] Control animal were treated with DMSO (−) or KM alone (+) Animals were then fixed and immunostained for GFP and otoferlin. Quantification was done by assessing three neuromasts in the same anatomic location of each animal (n=5). […]
These two markers were used to detect and count neuromast HCs to reduce the chances of missing some of the HCs after the treatment since we previously noticed that incubation with the compounds can affect GFP expression more difficult to detect under a fluorescence microscope (26). […] Compounds were then evaluated on efficiency and potency, with the top-rated compounds showing high protection at lower concentrations. […]

For Cc1cnc(Nc2ccc(OCCN3CCCC3)cc2)nc1Nc1cccc(S(=O)(=O)NC(C)(C)C)c1 [Fedratinib], the “protection of mechanosensory hair cells against kanamycin (KM)” value was “protected”.
